These are yes or no findings as the source states them, for the method shown. In cells and extracts the contact can be indirect. Some binding calls cover weakened binding; strength is not graded here. For some assays here: Where a sequence is shown, tags or fusion partners need not be part of it.
How the values were obtained:
[1] = biological target: T1, AATYK1 (endogenous, mouse brain) (mouse (endogenous in brain)) (UniProt Q80YE4); test: co-IP; mouse brain extract (10 weeks); AATYK1 immunoprecipitated with the anti-AATYK1 antibody; HEPES buffer (20 mM HEPES pH 7.5, 150 mM NaCl, 2 mM MgCl2, 1 mM EGTA, 0.5% Nonidet P-40); immunoblot with anti-p35 and anti-Cdk5
T1 sequence: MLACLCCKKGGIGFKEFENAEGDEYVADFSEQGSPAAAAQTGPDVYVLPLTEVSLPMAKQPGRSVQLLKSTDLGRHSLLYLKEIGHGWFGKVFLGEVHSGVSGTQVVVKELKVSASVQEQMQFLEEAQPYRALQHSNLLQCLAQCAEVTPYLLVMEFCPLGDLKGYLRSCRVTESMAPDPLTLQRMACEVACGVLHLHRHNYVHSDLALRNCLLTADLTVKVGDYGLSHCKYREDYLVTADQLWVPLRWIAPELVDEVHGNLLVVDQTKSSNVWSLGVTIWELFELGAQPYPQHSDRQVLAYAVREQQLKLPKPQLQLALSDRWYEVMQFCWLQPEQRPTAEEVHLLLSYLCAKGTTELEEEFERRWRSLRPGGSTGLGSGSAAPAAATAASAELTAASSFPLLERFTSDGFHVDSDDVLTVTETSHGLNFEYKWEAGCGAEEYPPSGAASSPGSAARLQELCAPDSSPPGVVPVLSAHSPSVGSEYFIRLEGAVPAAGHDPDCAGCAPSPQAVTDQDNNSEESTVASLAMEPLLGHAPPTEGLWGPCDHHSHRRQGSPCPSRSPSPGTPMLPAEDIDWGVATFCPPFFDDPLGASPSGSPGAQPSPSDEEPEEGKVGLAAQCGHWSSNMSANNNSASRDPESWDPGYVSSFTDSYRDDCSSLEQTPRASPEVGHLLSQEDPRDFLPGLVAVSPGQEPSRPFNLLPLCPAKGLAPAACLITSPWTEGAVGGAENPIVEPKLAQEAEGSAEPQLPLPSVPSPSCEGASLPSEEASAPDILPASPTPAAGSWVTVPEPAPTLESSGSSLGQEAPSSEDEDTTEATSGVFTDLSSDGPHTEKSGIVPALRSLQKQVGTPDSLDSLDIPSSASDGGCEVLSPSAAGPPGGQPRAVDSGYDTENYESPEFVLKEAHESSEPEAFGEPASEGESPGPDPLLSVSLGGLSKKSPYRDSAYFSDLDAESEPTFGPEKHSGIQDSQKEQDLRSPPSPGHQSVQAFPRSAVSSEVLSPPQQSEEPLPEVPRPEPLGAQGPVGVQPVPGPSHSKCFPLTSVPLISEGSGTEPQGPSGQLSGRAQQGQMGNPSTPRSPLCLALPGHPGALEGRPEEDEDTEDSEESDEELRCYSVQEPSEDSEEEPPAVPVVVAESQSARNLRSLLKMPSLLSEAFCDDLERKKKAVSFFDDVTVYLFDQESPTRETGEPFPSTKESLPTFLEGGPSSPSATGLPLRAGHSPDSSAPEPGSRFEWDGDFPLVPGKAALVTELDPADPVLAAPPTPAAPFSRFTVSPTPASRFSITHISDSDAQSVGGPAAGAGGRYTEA

Chains of the proteins cited; added tags and fusions are not shown.
UniProt P61809: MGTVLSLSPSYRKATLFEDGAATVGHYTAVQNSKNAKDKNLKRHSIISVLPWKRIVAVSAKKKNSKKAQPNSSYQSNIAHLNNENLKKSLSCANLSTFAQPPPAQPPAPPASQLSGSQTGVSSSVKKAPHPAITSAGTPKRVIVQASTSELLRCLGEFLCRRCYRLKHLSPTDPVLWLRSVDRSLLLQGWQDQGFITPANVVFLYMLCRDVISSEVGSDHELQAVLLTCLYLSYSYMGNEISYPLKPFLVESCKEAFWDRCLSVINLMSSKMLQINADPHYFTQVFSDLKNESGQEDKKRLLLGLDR
UniProt Q15078: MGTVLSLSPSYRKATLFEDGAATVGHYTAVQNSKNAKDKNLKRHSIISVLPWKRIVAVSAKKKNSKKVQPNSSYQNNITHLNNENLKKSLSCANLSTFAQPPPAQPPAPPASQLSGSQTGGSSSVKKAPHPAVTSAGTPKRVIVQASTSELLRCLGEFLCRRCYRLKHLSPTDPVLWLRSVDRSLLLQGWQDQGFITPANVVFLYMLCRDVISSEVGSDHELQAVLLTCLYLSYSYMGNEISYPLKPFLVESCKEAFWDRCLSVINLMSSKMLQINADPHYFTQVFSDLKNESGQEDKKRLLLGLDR

[2] = biological target: T2, Apoptosis-associated tyrosine kinase 1A (AATYK1A) tagged with Flag (UniProt Q80YE4); test: co-IP; AATYK1A-Flag coexpressed with both p35 and Cdk5 in HEK293 cells; immunoprecipitated from cell lysates with anti-Flag; immunoblot with anti-p35 and anti-Cdk5
T2 sequence: T1 sequence

binding [1] | binding [2] | Substance
binds | – | p35 (endogenous, mouse brain) (from UniProt P61809 1-307)
– | binds | p35, activation subunit of Cdk5 (from UniProt Q15078 1-307)

Reference: PMC2857886
